These results are taken from paper PMC4938514.

Chains of the proteins cited; added tags and fusions are not shown. Residues count along the entry.
UniProt P70207, residues 35-1894: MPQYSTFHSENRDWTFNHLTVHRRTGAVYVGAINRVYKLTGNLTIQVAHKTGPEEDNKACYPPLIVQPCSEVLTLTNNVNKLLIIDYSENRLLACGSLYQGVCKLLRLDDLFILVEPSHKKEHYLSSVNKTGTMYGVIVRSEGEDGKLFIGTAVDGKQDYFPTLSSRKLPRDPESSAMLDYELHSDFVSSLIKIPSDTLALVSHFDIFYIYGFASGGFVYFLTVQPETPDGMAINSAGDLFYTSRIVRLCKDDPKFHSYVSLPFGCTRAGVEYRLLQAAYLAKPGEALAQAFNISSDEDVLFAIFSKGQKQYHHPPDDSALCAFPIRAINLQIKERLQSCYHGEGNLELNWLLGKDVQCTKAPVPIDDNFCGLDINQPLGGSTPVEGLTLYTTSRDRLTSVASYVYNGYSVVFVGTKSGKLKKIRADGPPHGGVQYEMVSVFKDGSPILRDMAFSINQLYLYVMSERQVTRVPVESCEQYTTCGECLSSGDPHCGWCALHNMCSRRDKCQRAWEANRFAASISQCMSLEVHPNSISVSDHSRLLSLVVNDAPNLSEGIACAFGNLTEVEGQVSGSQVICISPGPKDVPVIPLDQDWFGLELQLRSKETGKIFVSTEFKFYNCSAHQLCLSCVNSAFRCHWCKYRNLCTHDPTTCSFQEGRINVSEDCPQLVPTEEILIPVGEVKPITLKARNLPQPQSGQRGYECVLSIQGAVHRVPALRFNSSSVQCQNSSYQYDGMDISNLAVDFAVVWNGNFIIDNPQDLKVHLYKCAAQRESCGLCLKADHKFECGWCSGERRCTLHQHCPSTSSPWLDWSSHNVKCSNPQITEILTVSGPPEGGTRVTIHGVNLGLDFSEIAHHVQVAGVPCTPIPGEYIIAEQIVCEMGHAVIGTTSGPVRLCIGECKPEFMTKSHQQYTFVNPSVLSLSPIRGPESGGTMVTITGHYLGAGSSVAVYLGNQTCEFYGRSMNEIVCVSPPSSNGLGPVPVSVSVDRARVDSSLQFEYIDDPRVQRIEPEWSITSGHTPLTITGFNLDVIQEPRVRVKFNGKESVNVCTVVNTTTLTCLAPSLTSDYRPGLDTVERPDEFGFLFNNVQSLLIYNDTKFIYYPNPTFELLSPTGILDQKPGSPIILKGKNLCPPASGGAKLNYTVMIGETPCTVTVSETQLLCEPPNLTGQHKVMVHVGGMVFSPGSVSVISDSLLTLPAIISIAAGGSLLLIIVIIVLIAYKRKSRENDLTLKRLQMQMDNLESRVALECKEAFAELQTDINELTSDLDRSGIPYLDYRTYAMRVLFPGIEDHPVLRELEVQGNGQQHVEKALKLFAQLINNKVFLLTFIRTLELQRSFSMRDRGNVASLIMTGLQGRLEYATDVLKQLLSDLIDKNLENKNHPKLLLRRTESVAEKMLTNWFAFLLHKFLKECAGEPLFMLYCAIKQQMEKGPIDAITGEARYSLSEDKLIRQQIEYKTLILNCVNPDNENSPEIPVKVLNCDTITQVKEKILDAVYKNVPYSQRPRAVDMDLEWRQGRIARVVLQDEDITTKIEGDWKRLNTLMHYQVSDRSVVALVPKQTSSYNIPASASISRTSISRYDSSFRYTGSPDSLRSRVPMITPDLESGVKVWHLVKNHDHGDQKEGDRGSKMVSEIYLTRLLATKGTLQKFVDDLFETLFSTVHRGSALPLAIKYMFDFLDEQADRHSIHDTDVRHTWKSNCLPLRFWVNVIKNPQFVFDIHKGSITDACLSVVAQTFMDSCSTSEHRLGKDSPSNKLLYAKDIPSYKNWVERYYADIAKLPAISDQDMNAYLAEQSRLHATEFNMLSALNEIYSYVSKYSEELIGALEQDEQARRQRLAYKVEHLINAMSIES
UniProt P00520: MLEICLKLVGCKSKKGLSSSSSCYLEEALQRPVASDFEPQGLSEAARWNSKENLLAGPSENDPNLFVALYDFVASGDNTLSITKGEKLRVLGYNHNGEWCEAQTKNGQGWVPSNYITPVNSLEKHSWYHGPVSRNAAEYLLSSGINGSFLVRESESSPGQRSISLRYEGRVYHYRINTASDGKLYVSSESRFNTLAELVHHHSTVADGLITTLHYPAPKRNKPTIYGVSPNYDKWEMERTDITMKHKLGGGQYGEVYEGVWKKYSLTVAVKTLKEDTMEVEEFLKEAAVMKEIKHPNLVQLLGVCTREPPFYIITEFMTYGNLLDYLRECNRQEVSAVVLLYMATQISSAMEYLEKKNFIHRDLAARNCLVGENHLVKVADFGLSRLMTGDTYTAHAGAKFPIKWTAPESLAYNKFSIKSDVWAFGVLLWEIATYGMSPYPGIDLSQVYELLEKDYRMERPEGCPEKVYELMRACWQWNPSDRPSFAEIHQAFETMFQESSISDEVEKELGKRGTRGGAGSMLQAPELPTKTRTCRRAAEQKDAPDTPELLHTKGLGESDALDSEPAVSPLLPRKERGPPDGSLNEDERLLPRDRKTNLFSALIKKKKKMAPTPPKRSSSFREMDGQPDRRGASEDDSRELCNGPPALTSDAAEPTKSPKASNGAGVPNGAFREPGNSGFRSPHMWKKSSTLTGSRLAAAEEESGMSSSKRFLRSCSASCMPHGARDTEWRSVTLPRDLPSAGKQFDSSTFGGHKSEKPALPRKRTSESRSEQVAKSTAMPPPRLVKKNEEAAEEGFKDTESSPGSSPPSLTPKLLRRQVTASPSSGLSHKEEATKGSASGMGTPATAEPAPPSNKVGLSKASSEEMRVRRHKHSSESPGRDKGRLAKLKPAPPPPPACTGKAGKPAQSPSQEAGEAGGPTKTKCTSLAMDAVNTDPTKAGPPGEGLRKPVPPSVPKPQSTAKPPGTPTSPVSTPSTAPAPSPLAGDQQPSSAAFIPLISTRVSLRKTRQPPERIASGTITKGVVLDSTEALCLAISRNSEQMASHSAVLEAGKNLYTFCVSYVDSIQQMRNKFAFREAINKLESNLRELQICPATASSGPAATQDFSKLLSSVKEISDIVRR
UniProt Q03173: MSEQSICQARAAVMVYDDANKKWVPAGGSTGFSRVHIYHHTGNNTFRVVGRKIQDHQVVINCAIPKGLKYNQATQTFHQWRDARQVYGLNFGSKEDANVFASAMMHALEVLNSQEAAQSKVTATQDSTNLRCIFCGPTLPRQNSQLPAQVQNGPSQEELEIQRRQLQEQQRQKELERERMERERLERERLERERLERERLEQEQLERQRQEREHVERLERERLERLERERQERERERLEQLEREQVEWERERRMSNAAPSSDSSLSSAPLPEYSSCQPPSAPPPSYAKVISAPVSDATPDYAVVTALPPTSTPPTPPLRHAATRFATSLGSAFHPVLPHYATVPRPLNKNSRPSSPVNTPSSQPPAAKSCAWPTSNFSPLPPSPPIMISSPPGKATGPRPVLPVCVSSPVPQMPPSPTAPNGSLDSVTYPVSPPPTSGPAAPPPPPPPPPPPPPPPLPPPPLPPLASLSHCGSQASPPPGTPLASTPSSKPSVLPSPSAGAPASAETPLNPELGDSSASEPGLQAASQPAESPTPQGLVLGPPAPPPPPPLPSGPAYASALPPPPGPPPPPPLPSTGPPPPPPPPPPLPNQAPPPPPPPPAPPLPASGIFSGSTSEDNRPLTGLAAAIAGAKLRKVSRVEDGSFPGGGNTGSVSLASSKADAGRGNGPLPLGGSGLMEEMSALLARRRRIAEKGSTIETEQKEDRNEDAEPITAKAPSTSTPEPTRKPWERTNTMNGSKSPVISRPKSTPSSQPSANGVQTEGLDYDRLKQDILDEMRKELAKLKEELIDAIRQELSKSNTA

No constants are given. Whether binding was seen depends on the method and setting. In cells and extracts the contact can be indirect. Some results given as binding are weak or reduced against the parent protein; the word gives no strength. For part of these data: Tags and fused reporters may be left off the sequences shown.

The target of experiment [1] is T1, Sema6A-FL (full-length Semaphorin-6A), as transfected for the in situ binding and the Sema6A/PlxnA2 co-immunoprecipitations (UniProt O35464).
T1 sequence: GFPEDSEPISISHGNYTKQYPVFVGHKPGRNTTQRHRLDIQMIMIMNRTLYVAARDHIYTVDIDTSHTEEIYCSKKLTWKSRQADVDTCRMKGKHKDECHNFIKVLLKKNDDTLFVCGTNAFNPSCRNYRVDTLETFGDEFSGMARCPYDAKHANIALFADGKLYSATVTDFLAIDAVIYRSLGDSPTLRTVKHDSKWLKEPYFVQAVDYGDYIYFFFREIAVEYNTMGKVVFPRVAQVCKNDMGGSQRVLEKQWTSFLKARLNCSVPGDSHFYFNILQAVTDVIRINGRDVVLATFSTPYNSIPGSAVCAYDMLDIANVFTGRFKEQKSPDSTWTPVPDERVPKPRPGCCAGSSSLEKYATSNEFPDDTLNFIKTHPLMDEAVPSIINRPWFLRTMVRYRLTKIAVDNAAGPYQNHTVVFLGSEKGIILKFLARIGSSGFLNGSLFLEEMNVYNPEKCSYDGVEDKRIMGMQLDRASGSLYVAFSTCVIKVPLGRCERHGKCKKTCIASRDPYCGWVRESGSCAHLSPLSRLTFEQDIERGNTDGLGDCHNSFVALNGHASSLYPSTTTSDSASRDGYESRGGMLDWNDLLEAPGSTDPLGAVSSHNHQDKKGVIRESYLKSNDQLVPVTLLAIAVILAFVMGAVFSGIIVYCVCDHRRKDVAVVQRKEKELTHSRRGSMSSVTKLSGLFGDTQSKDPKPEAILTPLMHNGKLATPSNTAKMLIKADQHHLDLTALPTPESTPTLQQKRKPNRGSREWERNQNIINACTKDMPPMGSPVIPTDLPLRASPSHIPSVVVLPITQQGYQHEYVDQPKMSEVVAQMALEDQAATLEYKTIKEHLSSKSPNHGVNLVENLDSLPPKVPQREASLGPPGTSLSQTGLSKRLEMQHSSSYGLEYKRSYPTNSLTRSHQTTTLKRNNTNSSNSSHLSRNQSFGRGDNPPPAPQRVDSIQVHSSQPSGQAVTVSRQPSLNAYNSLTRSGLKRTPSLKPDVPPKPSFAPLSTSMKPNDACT
The experiment in a line: co-IP; co-transfected COS-7 cells lysed in NP-40 buffer (10mM HEPES pH 7.5; 100mM NaCl, 2mM EDTA, 0.5% NP-40); 2h at 4°C with anti-PlexinA2 or anti-Sema6A; protein A/G sepharose; blots with anti-PlxnA2 and anti-Sema6A.

Experiment [2] deals with T2, endogenous Sema6A of mouse cerebellum (mouse (endogenous in cerebellum)) (UniProt O35464).
T2 sequence: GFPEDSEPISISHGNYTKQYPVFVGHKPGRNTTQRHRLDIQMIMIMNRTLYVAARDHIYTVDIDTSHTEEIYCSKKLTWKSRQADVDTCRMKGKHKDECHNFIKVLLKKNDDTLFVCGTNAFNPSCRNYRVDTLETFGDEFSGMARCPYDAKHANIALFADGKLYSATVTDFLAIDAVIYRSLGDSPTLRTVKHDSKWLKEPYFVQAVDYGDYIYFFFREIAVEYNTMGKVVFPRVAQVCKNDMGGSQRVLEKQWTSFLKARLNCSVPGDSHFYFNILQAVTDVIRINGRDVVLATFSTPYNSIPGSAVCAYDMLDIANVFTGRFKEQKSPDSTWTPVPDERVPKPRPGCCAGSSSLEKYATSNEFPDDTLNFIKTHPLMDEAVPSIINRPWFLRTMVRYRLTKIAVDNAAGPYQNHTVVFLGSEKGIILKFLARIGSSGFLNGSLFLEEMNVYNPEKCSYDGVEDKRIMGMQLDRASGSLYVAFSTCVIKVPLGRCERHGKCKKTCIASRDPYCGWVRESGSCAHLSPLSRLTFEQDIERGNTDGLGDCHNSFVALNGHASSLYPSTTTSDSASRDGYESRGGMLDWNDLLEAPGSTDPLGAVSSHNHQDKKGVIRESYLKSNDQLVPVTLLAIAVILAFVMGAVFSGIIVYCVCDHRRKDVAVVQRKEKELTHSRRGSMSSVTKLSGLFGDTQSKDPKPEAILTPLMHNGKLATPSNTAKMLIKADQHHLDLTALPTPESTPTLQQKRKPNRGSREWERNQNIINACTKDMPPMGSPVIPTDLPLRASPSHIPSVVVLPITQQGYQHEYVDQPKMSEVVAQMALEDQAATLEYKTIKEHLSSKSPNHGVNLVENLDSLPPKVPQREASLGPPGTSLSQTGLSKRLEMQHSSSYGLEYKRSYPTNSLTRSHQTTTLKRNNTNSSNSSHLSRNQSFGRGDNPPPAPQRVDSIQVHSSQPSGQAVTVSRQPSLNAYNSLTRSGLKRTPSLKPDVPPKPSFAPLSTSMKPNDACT
The experiment in a line: co-IP; endogenous proteins; extracts of P6 mouse cerebellum; IP with anti-Sema6A antibodies.

In another experiment the target is T3, myc-Sema6A-FL (UniProt O35464).
T3 sequence: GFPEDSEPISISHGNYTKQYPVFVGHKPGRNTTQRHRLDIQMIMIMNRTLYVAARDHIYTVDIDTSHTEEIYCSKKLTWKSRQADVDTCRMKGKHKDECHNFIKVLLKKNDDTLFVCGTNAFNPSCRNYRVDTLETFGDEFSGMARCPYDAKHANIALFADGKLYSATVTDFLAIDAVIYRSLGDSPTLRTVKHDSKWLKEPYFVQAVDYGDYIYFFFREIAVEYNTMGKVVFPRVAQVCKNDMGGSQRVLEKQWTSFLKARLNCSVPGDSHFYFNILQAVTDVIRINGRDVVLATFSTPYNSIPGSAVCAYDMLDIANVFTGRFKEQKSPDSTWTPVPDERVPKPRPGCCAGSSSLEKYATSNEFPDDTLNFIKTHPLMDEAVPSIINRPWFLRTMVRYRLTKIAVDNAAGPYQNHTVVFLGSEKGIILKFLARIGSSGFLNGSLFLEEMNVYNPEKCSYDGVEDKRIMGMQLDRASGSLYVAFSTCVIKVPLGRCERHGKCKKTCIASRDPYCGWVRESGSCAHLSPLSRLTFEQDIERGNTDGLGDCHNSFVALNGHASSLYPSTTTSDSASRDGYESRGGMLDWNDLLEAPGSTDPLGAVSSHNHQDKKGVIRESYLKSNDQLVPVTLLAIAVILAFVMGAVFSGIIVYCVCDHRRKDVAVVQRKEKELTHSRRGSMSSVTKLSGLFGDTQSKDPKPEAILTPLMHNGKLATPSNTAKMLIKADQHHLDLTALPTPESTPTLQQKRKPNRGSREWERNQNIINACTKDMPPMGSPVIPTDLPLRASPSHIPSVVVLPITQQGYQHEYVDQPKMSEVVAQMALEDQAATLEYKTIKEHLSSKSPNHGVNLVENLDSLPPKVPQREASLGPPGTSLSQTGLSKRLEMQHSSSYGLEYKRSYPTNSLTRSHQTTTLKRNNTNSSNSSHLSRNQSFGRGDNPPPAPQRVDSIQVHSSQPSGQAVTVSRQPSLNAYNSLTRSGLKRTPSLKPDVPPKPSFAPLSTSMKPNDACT
The experiment in a line: co-IP; co-transfected COS-7 cells, serum-starved 16h, stimulated with conditioned medium with PlexinA2-EC for 20 min at 37°C (untreated cells alongside; with or without co-transfected PlxnA2), lysed; 2h at 4°C with anti-myc or anti-V5.

As to “PlxnA2-FL (full-length Plexin-A2) (from UniProt P70207 35-1894) (receptor)”, in experiment [1], the binding result was “binds”. Regarding “endogenous Abl of mouse cerebellum (from UniProt P00520 1-1123) (enzyme)”, the binding result in experiment [2] is “binds”. For the substance “Full-length V5-tagged Mena (Mena-V5) (from UniProt Q03173 1-802)”, in the experiment with myc-Sema6A-FL, the binding entry is given as “binds”.
